# Assay results

By UniProt entry, the sequences of proteins in these tests, tags left out.
UniProt P16066, whole entry, target on record: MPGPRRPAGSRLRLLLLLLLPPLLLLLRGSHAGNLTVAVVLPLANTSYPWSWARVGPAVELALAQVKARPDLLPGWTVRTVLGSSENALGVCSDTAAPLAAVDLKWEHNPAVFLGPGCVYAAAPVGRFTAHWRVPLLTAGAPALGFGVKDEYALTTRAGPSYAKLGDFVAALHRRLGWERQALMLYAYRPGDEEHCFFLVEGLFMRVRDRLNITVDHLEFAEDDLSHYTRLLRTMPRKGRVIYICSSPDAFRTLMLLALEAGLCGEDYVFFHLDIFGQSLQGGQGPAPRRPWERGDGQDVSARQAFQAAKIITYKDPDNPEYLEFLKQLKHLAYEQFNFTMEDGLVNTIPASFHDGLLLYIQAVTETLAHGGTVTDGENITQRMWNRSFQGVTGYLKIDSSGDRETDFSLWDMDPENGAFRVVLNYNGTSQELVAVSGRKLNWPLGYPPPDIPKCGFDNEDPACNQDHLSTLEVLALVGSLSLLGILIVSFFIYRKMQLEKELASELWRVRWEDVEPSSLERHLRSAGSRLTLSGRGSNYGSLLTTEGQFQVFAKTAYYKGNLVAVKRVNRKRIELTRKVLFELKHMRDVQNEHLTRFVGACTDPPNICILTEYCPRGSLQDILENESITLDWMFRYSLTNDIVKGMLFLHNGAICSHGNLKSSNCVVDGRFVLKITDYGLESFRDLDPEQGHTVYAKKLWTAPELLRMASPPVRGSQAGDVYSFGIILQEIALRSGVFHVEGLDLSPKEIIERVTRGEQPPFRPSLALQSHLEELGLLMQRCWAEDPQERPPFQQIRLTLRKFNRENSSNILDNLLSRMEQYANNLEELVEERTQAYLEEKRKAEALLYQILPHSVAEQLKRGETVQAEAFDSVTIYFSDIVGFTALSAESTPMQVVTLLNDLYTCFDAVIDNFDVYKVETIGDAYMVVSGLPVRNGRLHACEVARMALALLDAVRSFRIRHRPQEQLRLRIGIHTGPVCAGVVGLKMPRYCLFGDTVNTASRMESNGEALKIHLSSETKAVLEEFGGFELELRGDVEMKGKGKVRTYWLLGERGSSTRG

From PubChem BioAssay record AID1347052 (NCATS, 2019).

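HEK293 cells carrying human Npr1 and a cGMP GloSensor, with luminescence read about 20 minutes after ANP-peptide stimulation to detect blockers of receptor cyclase activity.
Compounds were tested as a 1:3 dilution series, mostly reaching a top level of 9.22 µM.
The value is the fitted half-maximal inhibitory potency, so a lower number means a more potent blocker.
Calls come from the curve class and a derived score; compounds are filed inconclusive (score 10) when the pre-read curve class is anything other than 4.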

Values are in µM.
Every entry below has the call inconclusive.
These entries are mostly ones the record files as inconclusive; other results of the assay are not listed here.
A potency from a partial, single-point or poor curve is only a rough figure.
Some entries filed as inconclusive have a full curve.
Activity scores are not listed here.

* CC(C)Nc1oc(-c2ccccc2)nc1C=Cc1ccccc1 : potency 0.1059 µM (inhibitor, single point)
* COC(=O)C1C2CC(C)C(c3ccccc32)N1C(=O)C(F)(F)F (stereo not drawn) : potency 0.0841 µM (inhibitor, partial curve, poor fit)
* COc1ccc(-c2nc(-c3ccccc3)c(Nc3c(C)cccc3C)o2)cc1 : potency 5.309 µM (inhibitor, single point)
* CC(Nc1oc(-c2ccccc2)nc1-c1ccccc1)c1ccccc1 (stereo not drawn) : potency 0.075 µM (inhibitor, single point)
* CC(=O)[C@@H]1[C@@H](C)N(Cc2ccccc2)C(=O)N[C@H]1c1cccc(C(F)(F)F)c1 : potency 0.1679 µM (inhibitor, full curve)
* CCOC(=O)NN=C1C[C@@H](O)[C@@H](O)[C@@H]2[C@H]3C(=O)N(C4CCCCC4)C(=O)[C@@H]3CC[C@@H]12 : potency 0.8414 µM (inhibitor, single point)
* CCCCc1nc2c(c3c1C[C@H](C)OC3)CN(C(=O)NCc1ccco1)CC2 : potency 5.309 µM (inhibitor, single point)
* COc1cccc(CC(=O)N2CCc3nc(-c4ccccc4)c4c(c3C2)CO[C@@H](C)C4)c1 : potency 0.1884 µM (inhibitor, full curve)
* CCCNC(=O)N1C2=NC(C(=O)OC)=C(C(=O)OC)[C@@H]3Nc4ccccc4[C@]23C[C@H]1C(=O)OC : potency 1.189 µM (inhibitor, single point)
* CC1COc2ccccc2C1=O (stereo not drawn) : potency 4.217 µM (inhibitor, partial curve, poor fit)
* COC(=O)N[C@@H](c1ccccc1)[C@]1(C(=O)OC)CCCC1=O : potency 5.309 µM (inhibitor, single point)
* C=CCOC(=O)C(C(C)=O)[C@@H](NC(=O)OC)c1cccc(C(F)(F)F)c1 (stereo partly drawn) : potency 0.1189 µM (inhibitor, single point)
* COC(=O)N[C@@H](c1cccc(C)c1)C(C(C)=O)C(=O)OC (stereo partly drawn) : potency 0.1059 µM (inhibitor, single point)
* CC(C)CON=C1C[C@@H](O)[C@@H](O)[C@@H]2[C@H]3C(=O)N(c4cccc(Oc5ccccc5)c4)C(=O)[C@@H]3CC[C@H]12 : potency 0.1884 µM (inhibitor, full curve, poor fit)
* FC(F)(F)c1cc(NC(=S)NC(c2ccccc2)c2ccccc2)cc(C(F)(F)F)c1 : potency 0.0841 µM (inhibitor, single point)
* c1ccc(-c2nc(-c3cccc4ccccc34)c(Nc3ccc4ccccc4c3)o2)cc1 : potency 0.1189 µM (inhibitor, single point)
* CCOC(=O)[C@@]1([C@@H](NC(=O)OC)c2cccc(F)c2)CCCC1=O : potency 0.0668 µM (inhibitor, partial curve, poor fit)
* CC1(OC(=O)c2cnc3ccccc3n2)C(=O)C=C2C=C3CCCN3C=C2C1=O (stereo not drawn) : potency 0.0944 µM (inhibitor, single point)
* CCCCn1c(C)cc2c(c1=O)[C@H]1O[C@](c3ccsc3)(Cc3ccccc31)O2 : potency 0.1496 µM (inhibitor, single point)
* Nc1ccccc1C(=O)C=Cc1ccc2c(c1)OCO2 : potency 3.35 µM (inhibitor, partial curve, poor fit)
* C=CCOC(=O)N[C@H](C(C(=O)OC)=C(C)NCc1ccccc1)c1cccc(F)c1 : potency 0.1334 µM (inhibitor, single point)
* C[C@@H]1CC[C@H]2C(=O)N(Cc3ccccc3)C[C@H](O)CN2[C@H]1c1ccc(Br)cc1 : potency 0.1059 µM (inhibitor, single point)
* CCOC(=O)CNC(=O)O[C@@H]1C(=O)c2cc(OC)ccc2O[C@H]1c1ccc(OC)c(Br)c1 : potency 0.1496 µM (inhibitor, single point)
* COc1cc2c(cc1OC)[C@@H]1O[C@](c3ccsc3)(C2)Oc2cc(-c3ccccc3)oc(=O)c21 : potency 0.0841 µM (inhibitor, single point)
* COC(=O)C1=C(C)N(Cc2ccccc2)C(=NCc2ccc(OC)cc2)NC1c1ccccc1 (stereo not drawn) : potency 1.189 µM (inhibitor, single point)
* CCCCc1nc2c(c3c1C[C@H](C)OC3)CN(C(=O)c1cc(I)ccc1F)CC2 : potency 5.309 µM (inhibitor, single point)
* COc1cc2c(cc1OC)[C@@H]1O[C@](CCCCN3C(=O)c4ccccc4C3=O)(C2)Oc2cc(C)n(-c3ccccc3)c(=O)c21 : potency 3.35 µM (inhibitor, single point)
* COC(=O)CC1c2ccccc2C(Cc2ccc3c(c2)OCO3)=C(C)N1C(=O)OC (stereo not drawn) : potency 0.0038 µM (inhibitor, full curve, poor fit)
* Cc1ccccc1Nc1oc(-c2ccccc2)nc1CCc1ccccc1 : potency 0.0944 µM (inhibitor, single point)
* CCOC(=O)CN1C(=O)NC(c2cccc(C(F)(F)F)c2)C(C(C)=O)=C1C (stereo not drawn) : potency 0.2371 µM (inhibitor, partial curve)

The last 3 entries again:

Result for COC(=O)CC1c2ccccc2C(Cc2ccc3c(c2)OCO3)=C(C)N1C(=O)OC (stereo not drawn) was potency 0.0038 µM (inhibitor, full curve, poor fit).
Result for Cc1ccccc1Nc1oc(-c2ccccc2)nc1CCc1ccccc1 was potency 0.0944 µM (inhibitor, single point).
Result for CCOC(=O)CN1C(=O)NC(c2cccc(C(F)(F)F)c2)C(C(C)=O)=C1C (stereo not drawn) was potency 0.2371 µM (inhibitor, partial curve).